Paper PMC4459967
These are yes or no findings as the source states them, for the method shown. In cells and extracts the contact can be indirect. These calls come from enrichment with a bait or labelling near it, and not all partners need be listed. Sequences can lack the tags named with a protein.

T1: MMS19-Myc (Arabidopsis thaliana) (UniProt Q0WVF8)
T1 sequence: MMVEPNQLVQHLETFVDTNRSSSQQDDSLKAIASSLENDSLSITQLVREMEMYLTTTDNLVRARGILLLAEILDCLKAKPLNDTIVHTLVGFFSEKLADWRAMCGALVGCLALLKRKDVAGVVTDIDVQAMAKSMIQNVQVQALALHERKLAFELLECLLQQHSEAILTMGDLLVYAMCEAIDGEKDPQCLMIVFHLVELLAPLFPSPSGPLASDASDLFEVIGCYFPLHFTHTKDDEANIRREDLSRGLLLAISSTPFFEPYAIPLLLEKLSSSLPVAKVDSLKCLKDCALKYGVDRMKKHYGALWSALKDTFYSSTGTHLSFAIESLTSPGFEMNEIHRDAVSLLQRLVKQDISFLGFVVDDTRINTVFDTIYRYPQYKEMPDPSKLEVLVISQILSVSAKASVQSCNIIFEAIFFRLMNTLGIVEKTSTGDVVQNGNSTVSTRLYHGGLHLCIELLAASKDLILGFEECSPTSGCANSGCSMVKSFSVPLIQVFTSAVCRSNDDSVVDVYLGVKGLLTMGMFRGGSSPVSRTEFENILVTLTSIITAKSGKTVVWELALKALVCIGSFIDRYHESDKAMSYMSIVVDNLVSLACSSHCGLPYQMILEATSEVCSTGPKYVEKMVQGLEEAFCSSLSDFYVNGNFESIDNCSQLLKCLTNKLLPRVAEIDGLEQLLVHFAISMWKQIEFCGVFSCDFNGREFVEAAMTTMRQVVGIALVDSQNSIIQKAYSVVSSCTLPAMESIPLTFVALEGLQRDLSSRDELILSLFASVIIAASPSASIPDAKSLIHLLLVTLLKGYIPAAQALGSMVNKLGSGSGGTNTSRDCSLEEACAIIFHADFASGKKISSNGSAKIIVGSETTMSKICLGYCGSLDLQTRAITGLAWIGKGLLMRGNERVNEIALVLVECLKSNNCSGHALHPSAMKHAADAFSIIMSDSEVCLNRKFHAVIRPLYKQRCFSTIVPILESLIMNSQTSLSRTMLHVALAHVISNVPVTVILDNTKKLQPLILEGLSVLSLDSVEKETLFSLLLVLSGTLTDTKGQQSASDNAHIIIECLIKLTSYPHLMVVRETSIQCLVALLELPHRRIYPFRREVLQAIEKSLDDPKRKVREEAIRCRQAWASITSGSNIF

T2: CIA2-Flag (Arabidopsis thaliana) (UniProt Q9C9G6)
T2 sequence: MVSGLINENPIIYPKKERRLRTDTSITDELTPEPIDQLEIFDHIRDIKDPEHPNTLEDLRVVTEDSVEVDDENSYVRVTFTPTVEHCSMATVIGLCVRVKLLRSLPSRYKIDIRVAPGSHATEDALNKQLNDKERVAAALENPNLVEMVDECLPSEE

T3: CIA1-Flag (Arabidopsis thaliana) (UniProt O80990)
T3 sequence: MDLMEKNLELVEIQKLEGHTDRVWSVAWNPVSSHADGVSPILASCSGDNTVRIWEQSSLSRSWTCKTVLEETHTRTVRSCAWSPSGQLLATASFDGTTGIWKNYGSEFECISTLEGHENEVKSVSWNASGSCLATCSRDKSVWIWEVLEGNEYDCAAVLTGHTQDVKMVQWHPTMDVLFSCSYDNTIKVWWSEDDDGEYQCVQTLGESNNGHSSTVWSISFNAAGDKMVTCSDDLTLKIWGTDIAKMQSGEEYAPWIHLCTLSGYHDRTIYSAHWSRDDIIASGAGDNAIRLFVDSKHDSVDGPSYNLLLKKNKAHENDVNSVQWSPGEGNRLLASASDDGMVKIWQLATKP


Assays:
Assay in all cases: affinity purification with mass spectrometry; anti-Myc (MMS19-Myc) or anti-Flag (CIA1-Flag, CIA2-Flag) antibody-conjugated beads on extracts of flowers or seedlings of transgenic plants; CIA1-Flag and CIA2-Flag in the wild-type background, also done in the mms19 mutant background; lysis buffer 50 mM Tris-HCl pH 7.6, 150 mM NaCl, 5 mM MgCl2, 10% glycerol, 0.1% NP-40, 0.5 mM DTT; 4 °C; wild-type plants as control
[1] = target: T1, MMS19-Myc (Arabidopsis thaliana)
[2] = target: T2, CIA2-Flag (Arabidopsis thaliana)
[3] = target: T3, CIA1-Flag (Arabidopsis thaliana)

Row | Binder | binding [1] | binding [2] | binding [3]
1 | AT3G63460 (protein, UniProt Q8L611 1-1104) MACIKGVGRSASVALAPDAPYMAAGTMAGAVDLSFSSSANLEIFKLDFQSDDRDLPLVGEIPSSERFNRLAWGRNGSGSEEFALGLIAGGLVDGNIDLWNPLSLIGSQPSENALVGHLSVHKGPVRGLEFNAISSNLLASGADDGEICIWDLLKPSEPSHFPLLKGSGSATQGEISFISWNRKVQQILASTSYNGTTVIWDLRKQKPIINFADSVRRRCSVLQWNPNVTTQIMVASDDDSSPTLKLWDMRNIMSPVREFTGHQRGVIAMEWCPSDSSYLLTCAKDNRTICWDTNTAEIVAELPAGNNWNFDVHWYPKIPGVISASSFDGKIGIYNIEGCSRYGVEENNFGTAPLKAPKWYKRPVGASFGFGGKLVSCHARAPAKGTSSILSEVFLHSLVTEQSLVSRTSEFEAAIENGDMTSLRGLCEKKSEETESEEEKETWGLLKIMFEEEGTSRTKLISHLGFTLPVAEKDQAVDGLSSDLNGIRLEDTAADALDLDDSNEAAAFAMDNGEDFFNNFPAKPDTPVSTSAKDFMPSDTDFSTKGEETQEMQEEEEESSDPVFDNAIQRALIVGDYKEAVDQCITANKMADALVIAHVGGTALWESTREKYLKTSSAPYMKVVSAMVNNDLRSLIYTRSHKFWKETLALLCTFAQGEQWTTLCDALASKLMAAGNTLAAVLCYICAGNVDRTVEIWSRSLANERDGRSYAELLQDLMEKTLVLALATGNKKFSASLCKLFESYAEILASQGLLTTAMKYLKVLDSGGLSPELSILRDRISLSAEPETNTTASGNTQPQSTMPYNQEPTQAQPNVLANPYDNQYQQPYTDSYYVPQVSHPPMQQPTMFMPHQAQPAPQPSFTPAPTSNAQPSMRTTFVPSTPPALKNADQYQQPTMSSHSFTGPSNNAYPVPPGPGQYAPSGPSQLGQYPNPKMPQVVAPAAGPIGFTPMATPGVAPRSVQPASPPTQQAAAQAAPAPATPPPTVQTADTSNVPAHQKPVIATLTRLFNETSEALGGARANTTKKREIEDNSRKLGALFVKLNSGDISKNAADKLAQLCQALDNNDFSTALQIQVLLTTSEWDECNFWLATLKRMMVKARQNVR | binds | binds | binds
2 | AT3G11830 (protein, UniProt Q9SF16 1-557) MASMMQPQIILLKEGTDTSQGKAQLVSNINACTAVGDVVRTTLGPRGMDKLIHDDKGSVTISNDGATIMKLLDIVHPAAKILVDIAKSQDSEVGDGTTTVVLLAAEFLKEAKPFIEDGVHAQNLIRSYRTASTLAIAKVKELAVSIEGKSVEEKKGLLAKCAATTLSSKLIGGEKEFFATMVVDAVMAIGNDDRLNLIGIKKVPGGNMRDSFLVDGVAFKKTFSYAGFEQQPKKFLNPKILLLNIELELKSEKENAEIRLSDPSQYQSIVDAEWNIIYDKLDKCVESGAKVVLSRLAIGDLATQYFADRDIFCAGRVAEEDLNRVAAAAGGTVQTSVNNIIDEVLGTCEIFEEKQVGGERFNIFSGCPSGRTATIVLRGGADQFIEEAERSLHDAIMIVRRAVKNSTVVPGGGAIDMEISKYLRQHSRTIAGKSQLFINSYAKALEVIPRQLCDNAGFDATDVLNKLRQKHAMQSGEGASYGVDINTGGIADSFANFVWEPAVVKINAINAATEAACLILSVDETVKNPKSESAQGDAAGAMGRGRGGGRGRGMRRR | – | binds | binds

Now from value to binder:

Row | binding [1] | binding [2] | binding [3] | Binder
3 | binds | binds | binds | TRN1 (protein, UniProt Q8H0U4 1-891) MAATAVVWQPRDDGLAEICSLLEQQISPSSVVDKSQIWKQLQHFSQFPDFNNYLVFILVRAEGKSVEVRQAAGLLLKNNLRGAYPSMTQENQKYIKSELLPCLGAADRNIRTTVGTIISVIVNIEGVSGWHELLPALVTCLDSNDLNHMDGAMDALSKICEDIPHVLDTEVPGLAERPINIFLPRLLQFFQSPHASLRKLALGSVNQYIIIMPAALYNSLDKYLQGLFVLANDPVPEVRKLVCAAFVHLTEVLPSSIEPHLRNVMEYMLQVNRDPDEEVSLEACEFWSAYCDAQLPPENLKEFLPRLIPVLLENMAYADDDESLLDAEEDESQPDRDQDLKPRFHTSRLHGSEDFDDDDDDSFNVWNLRKCSAAAIDVLSNVFGDEILPALMPLIQKNLSASGDEAWKQREAAVLALGAIAEGCMNGLYPHLSEIVAFLLPLLDDKFPLIRSISCWTLSRFGKYLIQESGNPKGYEQFEKVLMGLLRRLLDTNKRVQEAACSAFATVEEDAAEELVPHLGVILQHLMCAFGKYQRRNLRIVYDAIGTLADSVREELNKPAYLEILMPPLVAKWQQLSNSDKDLFPLLECFTSISQALGVGFAPFAQPVFQRCMDIIQLQQLAKVNPASAGAQYDREFIVCSLDLLSGLAEGLGSGIESLVQQSNLRDLLLNCCIDEAADVRQSAFALMGDLARVFPVYLQPRLLDFLEIASQQLSANLNRENLSVANNACWAIGELAVKVRQEVSPIVAKVVSSLGLILQHGEGVNKALVENSAITLGRLAWIRPDLVAPHMDHFMKPWCMALSMVRDDIEKEDAFRGLCAVVKVNPSGGVSSLVFICQAIASWHEIRSEDVQTEVSQVLNGYKHMLGNSWAECLSALDPPVKERLARYQV
4 | – | binds | binds | MOS14 (protein, UniProt Q8GUL2 1-958) MEHQNAVKEALNALYHHPDDTVRVHADRWLQNFQGTLDAWQVADNLLHDSSSNLETLIFCSQTLRSKVQRDFEELPPGAFQKLRQSLTTLLKKFHKGPPKVRTQISIAVAALAVHVPAADWGDGGIISWLRDEMHMHPEYVPGFLELLTVLPEETFNYKIAARPDRRRQFEKELTSQMEAALSILSACLKISELKEQVLEAFASWLRLRHGIPGTVLACHPLVHAALSSLNCDPLSEASVNVISELIHHTASPSSGGISAQTPLIQVIVPQILSLQAHLRDSSKDEEDVKAIGRLFADVGDSYVELIATGSDEPMVIVHALLEVTAHPEFDIASMTFNFWHSLQLMLTKRESYSSLGSEASIEVERNRRLHIFQPAYQSLVSLVGFRVQYPEDYQGLSYEDLKEFKQTRYAVADVLIDAALILGGDTTLKILYMKLLEANAQTGNNFQDWRPAEAILFCIWAISNYVSVVEAEVMPQVMALLQNLPQQAQLLQTACLLVGAYSKWLNAAPASVSILPSIIRILMSGMGTSEDCAAAAALAFRHTCDDCRKNLCGYFEDLFNIYCMAINGGGGYKVSAEDSLNLVEALGMVVTELPLDQAKGALEKLCFSAASPLEEAAKEDLEKKHARELTVHIDRFAFLFRYVNHPEAVAAEINKHWAIFRVIFDARPWDMRTMESLCRACKYAVRTSGRYIIDTIGEMLEKIQFHYQQHHQPCFLYLSSEVIKIFGSDPSCAVYLKNLIETLFAHTTCLMTSIKEVTARPDIADDCFLLASRCLRYCPHLFIPSPIFPALVNCAMIGITVQHREACHSILTFLTDIFDLEKSVNEEQFVRIRDNIIIPRGATITRILIASLAGALPSSRLDTVTYSLLALTRTYRLQAVSWAKESVSLIPRTALTETESTKFLQALSDIAYGADVNSLIGQVEELSDVCRRNRTVQELVQAALKPLELNLVTAPVS
